The source of these data is patent US20220273809A1, “AXL ANTIBODY-DRUG CONJUGATES FOR USE IN TREATING CANCER” (GENMAB A/S, priority 2019, published 2022).

Series [1] relates to AXL-positive lung cancer PDX. As to the kind of experiment: mRNA and protein profiling of AXL-positive lung cancer PDX tumors. The series is classed as in vivo, mice. As to conditions: tumors harvested 3 or 6 days after treatment; 4 mg/kg.
The subject of series [2] is BLM cell line-derived xenograft. Description: RNA sequencing of BLM xenograft tumors with human T cells. The series is classed as in vivo, mice. As to conditions: 4 mg/kg single dose, Day 7, MART-1 T cells.
The next series deals with LXFA 526. Description: NSCLC PDX model, innate immune cell and cytokine profiling. The series is classed as in vivo, NMRI nu/nu mice. As to conditions: 4 mg/kg i.v., after 6 days.

For “IgG1-AXL-107-vcMMAE: anti-human AXL IgG1-kappa antibody conjugated, on an average of 4 cysteinyl, to MMAE via cleavable mc-val-cit-PABC linker”, the “gene set enrichment (mRNA) of treated vs control tumors” value in series [1] is given as “causes inflammation responses in tumor cells”. Besides, the “phenotype of infiltrated T-cells (memory vs effector gene sets)” value in series [2] is recorded as “skewed towards a memory-like phenotype”. Moreover, the “tumor influx of F4/80-expressing cells (immunohistochemistry)” value with LXFA 526 is “enhanced tumor influx of F4/80-expressing cells”.
